{"source": "PubChem BioAssay AID686943 (Drosophila RNAi Screening Center, 2013)", "aim": "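Search across the genome for regulators of signalling from receptor tyrosine kinase to ERK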 (primary screen)", "system": "Drosophila S2R+ haemocyte-like cells expressing YFP-tagged ERK (Rolled)", "reagent": "long dsRNA against Drosophila genes", "conditions": "insulin stimulation versus unstimulated cells; dose and duration not given", "measured": "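Per-plate z-scores of phospho-ERK immunostaining normalised to YFP-tagged ERK, measured with and without insulin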", "scale": "replicate 1, z-score of dpERK with insulin and replicate 2, z-score of dpERK with insulin: higher = more active ERK per ERK-YFP after insulin", "note": "The screen tested about 23,000 reagents; this is an unselected part of those with a known target gene and a result. 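Extra replicates exist only for a retested subset of genes; insulin dose and duration not given; both raised and lowered dpERK matter.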 The numbers tell different reagents against one gene apart. Further read-outs or replicates are left out here. Not stated in the record: the amount of reagent, the time to read-out."}
{"target gene": "Kank", "reagent": 1, "replicate 1, z-score of dpERK with insulin": 0.49, "replicate 2, z-score of dpERK with insulin": -0.46}
{"target gene": "Kank", "reagent": 2, "replicate 1, z-score of dpERK with insulin": 0.28, "replicate 2, z-score of dpERK with insulin": 0.44}
{"target gene": "CG34038", "reagent": 1, "replicate 1, z-score of dpERK with insulin": -0.49, "replicate 2, z-score of dpERK with insulin": 0.06}
{"target gene": "mRpL13 (mitochondrial ribosomal protein L13)", "reagent": 1, "replicate 1, z-score of dpERK with insulin": -0.01, "replicate 2, z-score of dpERK with insulin": 0.5}
{"target gene": "CG14760", "reagent": 1, "replicate 1, z-score of dpERK with insulin": 0.45, "replicate 2, z-score of dpERK with insulin": 1.08}
{"target gene": "Nadk1b (NAD kinase 1b)", "reagent": 1, "replicate 1, z-score of dpERK with insulin": 0.1, "replicate 2, z-score of dpERK with insulin": 0.27}
{"target gene": "Nadk1b (NAD kinase 1b)", "reagent": 2, "replicate 1, z-score of dpERK with insulin": 0.06, "replicate 2, z-score of dpERK with insulin": 0.49}
{"target gene": "Nadk1b (NAD kinase 1b)", "reagent": 3, "replicate 1, z-score of dpERK with insulin": 0.77, "replicate 2, z-score of dpERK with insulin": 0.29}
{"target gene": "Acbp2 (Acyl-CoA binding protein 2)", "reagent": 1, "replicate 1, z-score of dpERK with insulin": 0.71, "replicate 2, z-score of dpERK with insulin": 0.77}
{"target gene": "CG15741", "reagent": 1, "replicate 1, z-score of dpERK with insulin": 0.48, "replicate 2, z-score of dpERK with insulin": 0.52}
{"target gene": "Elba1 (Early boundary activity 1)", "reagent": 1, "replicate 1, z-score of dpERK with insulin": -0.06, "replicate 2, z-score of dpERK with insulin": 0.9}
{"target gene": "CG10947", "reagent": 1, "replicate 1, z-score of dpERK with insulin": 0.13, "replicate 2, z-score of dpERK with insulin": -0.08}
{"target gene": "Ir7d (Ionotropic receptor 7d)", "reagent": 1, "replicate 1, z-score of dpERK with insulin": -0.21, "replicate 2, z-score of dpERK with insulin": 0.02}
{"target gene": "GCS2beta (Glucosidase 2 beta subunit)", "reagent": 1, "replicate 1, z-score of dpERK with insulin": 1.15, "replicate 2, z-score of dpERK with insulin": 0.72}
{"target gene": "disp (dispatched)", "reagent": 1, "replicate 1, z-score of dpERK with insulin": 1.42, "replicate 2, z-score of dpERK with insulin": -0.45}
{"target gene": "ppl (pumpless)", "reagent": 1, "replicate 1, z-score of dpERK with insulin": 0.51, "replicate 2, z-score of dpERK with insulin": 1.47}
{"target gene": "CG12992", "reagent": 1, "replicate 1, z-score of dpERK with insulin": 0.45, "replicate 2, z-score of dpERK with insulin": 1.4}

3 entries from above, reformatted.
| target gene | reagent | replicate 1, z-score of dpERK with insulin | replicate 2, z-score of dpERK with insulin |
| --- | --- | --- | --- |
| Kank | 2 | 0.28 | 0.44 |
| CG34038 | 1 | -0.49 | 0.06 |
| mRpL13 (mitochondrial ribosomal protein L13) | 1 | -0.01 | 0.5 |

The listing continues.
{"target gene": "Trm7-34 (tRNA methyltransferase 7-34)", "reagent": 1, "replicate 1, z-score of dpERK with insulin": 0.41, "replicate 2, z-score of dpERK with insulin": -0.28}
{"target gene": "PIG-Wb (Phosphatidylinositol glycan anchor biosynthesis class W b)", "reagent": 1, "replicate 1, z-score of dpERK with insulin": -0.56, "replicate 2, z-score of dpERK with insulin": -0.04}
{"target gene": "Gp150", "reagent": 1, "replicate 1, z-score of dpERK with insulin": 1.19, "replicate 2, z-score of dpERK with insulin": 1.36}
{"target gene": "Asap (ArfGAP with SH3 domain, ankyrin repeat and PH domain)", "reagent": 1, "replicate 1, z-score of dpERK with insulin": 0.52, "replicate 2, z-score of dpERK with insulin": 1.01}
{"target gene": "Asap (ArfGAP with SH3 domain, ankyrin repeat and PH domain)", "reagent": 2, "replicate 1, z-score of dpERK with insulin": 0.43, "replicate 2, z-score of dpERK with insulin": 0.94}
{"target gene": "Prosalpha4T2 (Proteasome alpha4 subunit, Testis-specific 2)", "reagent": 1, "replicate 1, z-score of dpERK with insulin": 1.38, "replicate 2, z-score of dpERK with insulin": -0.71}
{"target gene": "CG3760", "reagent": 1, "replicate 1, z-score of dpERK with insulin": -1.2, "replicate 2, z-score of dpERK with insulin": -0.67}
{"target gene": "CG5071", "reagent": 1, "replicate 1, z-score of dpERK with insulin": 1.11, "replicate 2, z-score of dpERK with insulin": 0.14}
{"target gene": "CG5071", "reagent": 2, "replicate 1, z-score of dpERK with insulin": -0.05, "replicate 2, z-score of dpERK with insulin": 0.31}
{"target gene": "CG9945", "reagent": 1, "replicate 1, z-score of dpERK with insulin": 0.54, "replicate 2, z-score of dpERK with insulin": -0.09}
{"target gene": "CG15221", "reagent": 1, "replicate 1, z-score of dpERK with insulin": 0.58, "replicate 2, z-score of dpERK with insulin": 0.4}
{"target gene": "SCCRO4 (Squamous cell carcinoma-related oncogene 4)", "reagent": 1, "replicate 1, z-score of dpERK with insulin": 0.95, "replicate 2, z-score of dpERK with insulin": 0.58}
{"target gene": "nonA (no on or off transient A)", "reagent": 1, "replicate 1, z-score of dpERK with insulin": -0.11, "replicate 2, z-score of dpERK with insulin": 0.71}
{"target gene": "CG10431", "reagent": 1, "replicate 1, z-score of dpERK with insulin": 0.74, "replicate 2, z-score of dpERK with insulin": 0.58}
